Results on one molecule are retold here after PMC11711762.

Protein sequences, listed by entry. Tags and fused reporters are not part of them. Lines headed by an entry give the natural chain unless they say otherwise; changes in a name come on top.
UniProt Q9Z0U4: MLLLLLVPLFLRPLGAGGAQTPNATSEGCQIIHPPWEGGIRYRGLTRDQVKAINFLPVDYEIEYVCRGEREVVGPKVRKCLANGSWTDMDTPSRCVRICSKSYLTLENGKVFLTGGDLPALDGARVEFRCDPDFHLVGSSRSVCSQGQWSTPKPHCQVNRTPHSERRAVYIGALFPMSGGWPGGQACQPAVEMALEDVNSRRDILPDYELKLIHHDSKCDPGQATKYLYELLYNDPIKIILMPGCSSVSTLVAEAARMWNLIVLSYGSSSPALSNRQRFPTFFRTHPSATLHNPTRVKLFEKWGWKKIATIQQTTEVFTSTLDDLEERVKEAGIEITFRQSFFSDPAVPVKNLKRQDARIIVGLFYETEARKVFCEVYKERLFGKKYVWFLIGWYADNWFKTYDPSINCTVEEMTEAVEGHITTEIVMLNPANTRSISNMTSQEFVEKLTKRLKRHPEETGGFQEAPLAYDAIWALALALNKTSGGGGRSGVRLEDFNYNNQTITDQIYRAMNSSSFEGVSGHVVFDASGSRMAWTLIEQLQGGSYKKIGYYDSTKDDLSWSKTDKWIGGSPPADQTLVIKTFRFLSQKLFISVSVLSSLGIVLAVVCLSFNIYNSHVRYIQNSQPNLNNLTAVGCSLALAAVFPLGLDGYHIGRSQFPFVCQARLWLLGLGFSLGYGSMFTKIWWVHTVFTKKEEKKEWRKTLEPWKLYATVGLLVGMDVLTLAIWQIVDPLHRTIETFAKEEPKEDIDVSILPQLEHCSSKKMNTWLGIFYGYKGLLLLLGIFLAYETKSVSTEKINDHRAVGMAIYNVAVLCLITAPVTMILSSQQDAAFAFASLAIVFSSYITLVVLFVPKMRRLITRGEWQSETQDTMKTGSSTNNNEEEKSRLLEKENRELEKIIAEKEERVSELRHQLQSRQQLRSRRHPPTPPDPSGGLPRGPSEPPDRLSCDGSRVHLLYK

No constants are given. Whether binding was seen depends on the method and setting. In cells and extracts the contact can be indirect. Some entries that bind do so weakly or less than the wild type. Sequences can lack the tags named with a protein.

This assay has as its target GABAB receptor heterodimer (HA-tagged GABAB1a and GABAB2) expressed in HEK-293 cells (UniProt Q9Z0U4). The experiment in a line: proximity ligation; in situ PLA (Duolink II) on fixed, permeabilised HEK-293 cells co-expressing GABAB1/GABAB2/MARCH1; antibodies against MARCH1 and GABAB1 or GABAB2; cells without MARCH1 as control for non-specific signal.

B1: EYFP-MARCH1 (membrane-associated RING CH-type finger 1), wildtype (enzyme, UniProt Q8TCQ1 1-289)
chain: MLGWCEAIARNPHRIPNNTRTPEISGDLADASQTSTLNEKSPGRSASRSSNISKASSPTTGTAPRSQSRLSVCPSTQDICRICHCEGDEESPLITPCRCTGTLRFVHQSCLHQWIKSSDTRCCELCKYDFIMETKLKPLRKWEKLQMTTSERRKIFCSVTFHVIAITCVVWSLYVLIDRTAEEIKQGNDNGVLEWPFWTKLVVVAIGFTGGLVFMYVQCKVYVQLWRRLKAYNRVIFVQNCPDTAKKLEKNFSCNVNTDIKDAVVVPVPQTGANSLPSAEGGPPEVVSV
For B1, the binding entry is given as “binds”.
